Results are given in words; binding and its absence hold for the method and conditions named. In cells and extracts the contact can be indirect. Some entries that bind do so weakly or less than the wild type. Sequences can lack the tags named with a protein.
Target: T1, Ovarian carcinoma immunoreactive antigen-like protein 2 (OCIAD2) with an N-terminal FLAG-tag (human) (UniProt Q56VL3)
T1 sequence: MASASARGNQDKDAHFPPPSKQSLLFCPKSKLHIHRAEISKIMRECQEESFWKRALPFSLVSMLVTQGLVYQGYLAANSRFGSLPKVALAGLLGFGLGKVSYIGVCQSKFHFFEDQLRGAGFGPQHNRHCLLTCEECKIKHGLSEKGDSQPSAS
Experiment: co-IP

By UniProt entry, the sequences of proteins in these tests, tags left out. Residues count along the entry.
UniProt P28331, residues 24-727: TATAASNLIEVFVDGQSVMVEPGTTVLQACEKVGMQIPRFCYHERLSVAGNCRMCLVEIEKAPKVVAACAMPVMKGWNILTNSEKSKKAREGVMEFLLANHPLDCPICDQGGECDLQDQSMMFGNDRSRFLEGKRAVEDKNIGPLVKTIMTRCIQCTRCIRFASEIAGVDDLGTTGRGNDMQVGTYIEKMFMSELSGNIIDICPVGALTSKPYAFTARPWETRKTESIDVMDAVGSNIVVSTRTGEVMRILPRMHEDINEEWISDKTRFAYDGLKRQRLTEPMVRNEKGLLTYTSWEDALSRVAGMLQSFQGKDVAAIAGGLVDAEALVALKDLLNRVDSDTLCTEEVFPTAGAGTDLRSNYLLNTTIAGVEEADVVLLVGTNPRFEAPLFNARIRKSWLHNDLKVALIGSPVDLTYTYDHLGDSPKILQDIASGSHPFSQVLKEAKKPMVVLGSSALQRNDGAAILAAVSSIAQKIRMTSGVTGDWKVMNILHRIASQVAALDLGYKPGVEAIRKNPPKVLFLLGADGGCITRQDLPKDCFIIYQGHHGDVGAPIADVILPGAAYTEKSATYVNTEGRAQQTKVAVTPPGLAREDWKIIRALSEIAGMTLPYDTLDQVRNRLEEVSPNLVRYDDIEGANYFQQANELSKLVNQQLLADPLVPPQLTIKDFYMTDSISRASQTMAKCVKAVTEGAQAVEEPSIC
UniProt P47985, residues 79-274: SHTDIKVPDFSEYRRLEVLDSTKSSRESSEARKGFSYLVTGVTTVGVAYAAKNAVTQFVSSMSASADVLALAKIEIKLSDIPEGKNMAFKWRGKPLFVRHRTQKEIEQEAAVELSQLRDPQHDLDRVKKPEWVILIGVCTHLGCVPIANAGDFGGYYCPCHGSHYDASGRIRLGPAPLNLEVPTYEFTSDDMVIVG

| binding | Substance |
| --- | --- |
| binds | NDUFS1 (from UniProt P28331 24-727) |
| binds | Rieske protein (UQCRFS1) (from UniProt P47985 79-274) |

— publication doi:10.1101/2020.12.09.417287
